Data reported in PubChem BioAssay AID248 (DTP/NCI, 2004).
The list does not hold the whole screen: it is rich in T/C values a quarter to a half above the control, in often repeated tests (any T/C) and in doses without a T/C. Further doses and runs are listed elsewhere. T/C gives the treated animals as a percentage of the vehicle group. Some entries give survivors of the animals treated and no T/C: the source files T/C as zero there, which appears to mark a toxic dose or a test without result, not a measured value. Some survivor counts are full or nearly so, which does not show that the dose was tolerated: survival well below the control is almost never listed, so the zero probably covers shortened survival too. Survivors were counted at the toxicity check, usually on the fifth day, unless a day is given; later deaths do not show. Schedule codes are those of the source, read here as Q, the interval in days (D) or hours (H), X, the number of doses. Where survival is the endpoint, this PubChem deposit counts one and a half times the control or more as active, and values a quarter to a half above the control carry no call in these data; other NCI protocols may use other cut-offs. Some schedule codes hold Z or #, which are not explained here. Some T/C values carry the count of animals alive at the toxicity check (mostly the fifth day); where none is given, no animal had died by that day.

Tested on: L1210 leukemia ip in BDF1 mice, survival T/C
Assay: NCI In Vivo Anticancer Drug Screen. Data for tumor model L1210 Leukemia (intraperitoneal) in B6D2F1 (BDF1) mice
Conditions: higher T/C = longer survival
[1] = T/C endpoint: mean survival time, dose: 200.0 mg/kg/injection, schedule: Q04DX002 (ip), vehicle: saline
[2] = T/C endpoint: mean survival time, dose: 400.0 mg/kg/injection, schedule: Q04DX002 (ip), vehicle: saline
[3] = T/C endpoint: mean survival time, dose: 200.0 mg/kg/injection, schedule: Q01DX009 (ip), vehicle: saline
[4] = T/C endpoint: mean survival time, dose: 400.0 mg/kg/injection, schedule: Q04DX003 (ip), vehicle: saline
[5] = T/C endpoint: mean survival time, dose: 400.0 mg/kg/injection, schedule: Q01DX001 (ip), vehicle: saline
[6] = T/C endpoint: mean survival time, dose: 400.0 mg/kg/injection, schedule: Q04DX003 (ip), vehicle: Klucel (hydroxypropylcellulose) (HPC)
[7] = T/C endpoint: mean survival time, dose: 400.0 mg/kg/injection, schedule: Q01DX001 (ip), vehicle: Klucel (hydroxypropylcellulose) (HPC)

For S=C(Nc1ccc(C2=NCCN2)cc1)c1ccc(C(=S)Nc2ccc(C3=NCCN3)cc2)cc1, the T/C (T/C endpoint: mean survival time, dose: 8.0 mg/kg/injection, schedule: Q01DX Z (ip), vehicle: saline) was 130 % of control, the T/C (T/C endpoint: mean survival time, dose: 16.0 mg/kg/injection, schedule: Q01DX Z (ip), vehicle: saline) was 136 % of control and the T/C (T/C endpoint: mean survival time, dose: 120.0 mg/kg/injection, schedule: Q01DX Z (ip), vehicle: carboxymethylcellulose (CMC)) was 137 % of control.
COc1cccc2c1C(=O)c1c(O)c3c(c(O)c1C2=O)C[C@@](O)(C(=O)COC(=O)Cc1cccc2ccccc12)C[C@@H]3OC1CC(N)C(O)C(C)O1 (some centres not stated) was tested, and the survivor count (T/C endpoint: mean survival time, dose: 0.25 mg/kg/injection, schedule: Q04DX003 (ip), vehicle: water) was 6 of 6, the survivor count (T/C endpoint: mean survival time, dose: 0.5 mg/kg/injection, schedule: Q04DX003 (ip), vehicle: water) was 6 of 6 and the survivor count (T/C endpoint: mean survival time, dose: 1.0 mg/kg/injection, schedule: Q04DX003 (ip), vehicle: water) was 6 of 6. For the same molecule, the survivor count (T/C endpoint: mean survival time, dose: 2.0 mg/kg/injection, schedule: Q04DX003 (ip), vehicle: water) was 6 of 6, the survivor count (T/C endpoint: mean survival time, dose: 4.0 mg/kg/injection, schedule: Q04DX003 (ip), vehicle: water) was 6 of 6 and the survivor count (T/C endpoint: mean survival time, dose: 8.0 mg/kg/injection, schedule: Q04DX003 (ip), vehicle: water) was 6 of 6. The survivor count (T/C endpoint: mean survival time, dose: 16.0 mg/kg/injection, schedule: Q04DX003 (ip), vehicle: water) was 6 of 6.
For NC(CCl)=NC1CCCCC1, the survivor count [1] was 0 of 3 and the survivor count [2] was 0 of 3.
NS(=O)(=O)c1ccc(N=Nc2nc3[nH]cnc(=S)c3[nH]2)cc1 was tested, and the T/C (T/C endpoint: mean survival time, dose: 30.0 mg/kg/injection, schedule: Q01DX009 (ip), vehicle: saline) was 136 % of control [5 of 6 alive], the T/C (T/C endpoint: mean survival time, dose: 62.5 mg/kg/injection, schedule: Q01DX009 (ip), vehicle: saline) was 136 % of control and the T/C (T/C endpoint: mean survival time, dose: 125.0 mg/kg/injection, schedule: Q01DX009 (ip), vehicle: saline) was 145 % of control [5 of 6 alive]. For the same molecule, the survivor count (T/C endpoint: mean survival time, dose: 500.0 mg/kg/injection, schedule: Q01DX009 (ip), vehicle: saline) was 4 of 6 and the T/C (T/C endpoint: mean survival time, dose: 500.0 mg/kg/injection, schedule: Q01DX015 (ip), vehicle: saline) was 134 % of control.
O=[N+]([O-])c1ccc(N/N=C/c2ccc(N(CCO)CCO)cc2)c([N+](=O)[O-])c1 was tested, and the survivor count (T/C endpoint: mean survival time, dose: 100.0 mg/kg/injection, schedule: Q01DX001 (ip), vehicle: saline with Tween-80) was 5 of 6, the survivor count (T/C endpoint: mean survival time, dose: 200.0 mg/kg/injection, schedule: Q01DX001 (ip), vehicle: saline with Tween-80) was 6 of 6 and the survivor count (T/C endpoint: mean survival time, dose: 400.0 mg/kg/injection, schedule: Q01DX001 (ip), vehicle: saline with Tween-80) was 6 of 6.
For O=C1CCCc2cc3c(cc21)CCCC3, the survivor count (T/C endpoint: mean survival time, dose: 400.0 mg/kg/injection, schedule: Q01DX009 (ip), vehicle: Klucel (hydroxypropylcellulose) (HPC)) was 1 of 6.
With O=C(O)C(=O)c1ccc(-c2ccccc2)cc1 the survivor count (T/C endpoint: mean survival time, dose: 300.0 mg/kg/injection, schedule: Q01DX001 (ip), vehicle: carboxymethylcellulose (CMC)) was 2 of 6.
For C#CC(O)(/C=C\Cl)CC (configuration not stated), the survivor count [3] was 2 of 6 and the survivor count [4] was 1 of 4.
COC(=O)c1cccc(N=NN(C)C)c1 was tested, and the T/C (T/C endpoint: median survival time, dose: 39.0 mg/kg/injection, schedule: Q01DX009 (ip), vehicle: steroid suspending solution) was 130 % of control, the T/C (T/C endpoint: median survival time, dose: 65.0 mg/kg/injection, schedule: Q01DX009 (ip), vehicle: steroid suspending solution) was 130 % of control and the survivor count (T/C endpoint: median survival time, dose: 108.0 mg/kg/injection, schedule: Q01DX009 (ip), vehicle: steroid suspending solution) was 8 of 8. For the same molecule, the T/C (T/C endpoint: median survival time, dose: 180.0 mg/kg/injection, schedule: Q04DX003 (ip), vehicle: steroid suspending solution) was 125 % of control and the survivor count (T/C endpoint: median survival time, dose: 500.0 mg/kg/injection, schedule: Q01DX001 (ip), vehicle: steroid suspending solution) was 5 of 8.
For N#CCC(C(=O)c1cccnc1)c1ccccc1 (configuration not stated), the survivor count (T/C endpoint: mean survival time, dose: 400.0 mg/kg/injection, schedule: Q04DX002 (ip), vehicle: gum acacia) was 3 of 3.
With CCCCCCCCC/C(C)=C1/SC(=S)NC1=O the survivor count [3] was 6 of 6 and the survivor count (T/C endpoint: mean survival time, dose: 400.0 mg/kg/injection, schedule: Q01DX009 (ip), vehicle: saline) was 6 of 6.
With CCc1occ(C(=O)N2Cc3cc4ccccc4nc3C2)c1C1SCCS1 the survivor count [5] was 6 of 6.
With CCOC1c2cnc(C)n2C=CN1C(C)=O (configuration not stated) the survivor count (T/C endpoint: mean survival time, dose: 200.0 mg/kg/injection, schedule: Q01DX009 (ip), vehicle: water) was 4 of 6 and the survivor count (T/C endpoint: mean survival time, dose: 400.0 mg/kg/injection, schedule: Q04DX003 (ip), vehicle: water) was 1 of 6.
With CNCCc1cc2c(cc1C=O)OCO2 the survivor count (T/C endpoint: mean survival time, dose: 300.0 mg/kg/injection, schedule: Q01DX001 (ip), vehicle: saline) was 0 of 6.
With NC(Cc1ccccc1)C(=O)NCCCCCCCCCCNC(=O)C(N)Cc1ccccc1 (configuration not stated) the survivor count [5] was 2 of 4.
With C=C(Br)CNC(=O)C(F)(F)F the survivor count (T/C endpoint: mean survival time, dose: 100.0 mg/kg/injection, schedule: Q04DX003 (ip), vehicle: saline) was 0 of 6, the survivor count (T/C endpoint: mean survival time, dose: 200.0 mg/kg/injection, schedule: Q04DX003 (ip), vehicle: saline) was 0 of 6 and the survivor count [4] was 0 of 6.
For O=[N+]([O-])c1cc([As](=O)(O)O)ccc1Cl, the survivor count (T/C endpoint: mean survival time, dose: 200.0 mg/kg/injection, schedule: Q01DX009 (ip), vehicle: Klucel (hydroxypropylcellulose) (HPC)) was 3 of 6 and the survivor count [6] was 0 of 6.
With NCCCC(N)C(=O)NCCCCCCNCCCCCCNC(=O)C(N)CCCN (configuration not stated) the survivor count [5] was 0 of 4.
For CC(=O)OC(OC(C)=O)c1ccc([N+](=O)[O-])o1, the survivor count (T/C endpoint: mean survival time, dose: 200.0 mg/kg/injection, schedule: Q04DX003 (ip), vehicle: Klucel (hydroxypropylcellulose) (HPC)) was 5 of 6 and the survivor count [6] was 0 of 6.
CSC(=O)SC was tested, and the survivor count (T/C endpoint: mean survival time, dose: 200.0 mg/kg/injection, schedule: Q01DX009 (ip), vehicle: saline with Tween-80) was 0 of 6 and the survivor count (T/C endpoint: mean survival time, dose: 400.0 mg/kg/injection, schedule: Q01DX009 (ip), vehicle: saline with Tween-80) was 0 of 6.
In the case of Cc1cc(NC(C)C)c(C)cc1NC(C)C, the survivor count (T/C endpoint: mean survival time, dose: 50.0 mg/kg/injection, schedule: Q04DX002 (ip), vehicle: Klucel (hydroxypropylcellulose) (HPC)) is reported as 1 of 3, the survivor count (T/C endpoint: mean survival time, dose: 100.0 mg/kg/injection, schedule: Q04DX002 (ip), vehicle: Klucel (hydroxypropylcellulose) (HPC)) is reported as 0 of 3 and the survivor count (T/C endpoint: mean survival time, dose: 200.0 mg/kg/injection, schedule: Q04DX002 (ip), vehicle: Klucel (hydroxypropylcellulose) (HPC)) is reported as 0 of 3. For the same molecule, the survivor count (T/C endpoint: mean survival time, dose: 400.0 mg/kg/injection, schedule: Q04DX002 (ip), vehicle: Klucel (hydroxypropylcellulose) (HPC)) was 0 of 3.
With NC(=O)C1C2C=CC(O2)C1C(=O)O (configuration not stated) the survivor count (T/C endpoint: mean survival time, dose: 100.0 mg/kg/injection, schedule: Q04DX002 (ip), vehicle: saline) was 0 of 3, the survivor count [1] was 0 of 3 and the survivor count [2] was 0 of 3.
For S=C(SSC(=S)N1CCOCC1)N1CCOCC1, the survivor count [7] was 1 of 6 and the survivor count [4] was 1 of 4.
With CN(C(=O)NCCCl)C1CCC(C(=O)O)CC1 (configuration not stated) the survivor count [7] was 3 of 3.
